The list shows a part of the results.

The source of these data is article PMC7819943, “Rice protein-binding microarrays: a tool to detect cis-acting elements near promoter regions in rice”.

This test deals with T1, OsSMF1 (Oryza sativa, UniProt Q6ZLB0 1-436).
T1 sequence: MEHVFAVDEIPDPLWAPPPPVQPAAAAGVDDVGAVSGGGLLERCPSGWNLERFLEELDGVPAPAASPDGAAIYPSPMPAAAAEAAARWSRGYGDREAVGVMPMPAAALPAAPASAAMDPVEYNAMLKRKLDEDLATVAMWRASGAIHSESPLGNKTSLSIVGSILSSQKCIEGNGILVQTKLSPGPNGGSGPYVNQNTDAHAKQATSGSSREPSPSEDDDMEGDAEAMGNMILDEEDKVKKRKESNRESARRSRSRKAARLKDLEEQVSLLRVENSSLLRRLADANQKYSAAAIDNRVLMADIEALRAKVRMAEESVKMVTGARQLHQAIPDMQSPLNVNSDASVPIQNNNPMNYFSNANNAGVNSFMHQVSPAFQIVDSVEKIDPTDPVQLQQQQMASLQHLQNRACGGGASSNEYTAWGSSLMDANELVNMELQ
The test can be described thus: protein-binding microarray (RPBM); PBS, 2% BSA, 51.3 ng/ul salmon testes DNA, 50 uM zinc acetate, 200 nM TF, 25 C, 1 h; high values mean tight binding. The conditions noted are these: protein: recombinant; tags: N-terminal polyhistidine and DsRed monomer fusion (pET32a); chain copies: 2; label: CyDye5-dUTP incorporated in the synthesized complementary strand; 3' TTTTT single-stranded linker to array surface; dsDNA, one strand shown. An outline of the steps:
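Transcription factors, each fused N-terminally to a polyhistidine tag and DsRed, were expressed in E. coli BL21-CodonPlus and purified on Ni–NTA. A custom Agilent array was made double-stranded by primer extension with Cy5-dUTP and blocked with 2% BSA. It was incubated with 200 nM protein in PBS, 2% BSA, salmon testes DNA and 50 µM zinc acetate at 25 °C for 1 h, then washed. The binding signal is per-feature fluorescence intensity (arbitrary units) read on an Axon 4000B scanner.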
“ATGTTATCGTGCTAGTGTCAGCACATTCTCACTGATATTACGGAGTCACCTAGTGCAG”: the binding signal was 5330 fluorescence intensity (a.u.).

With “AAACACAATTGTGCCACCTATACAGACTGTTTTGGGGAATCGGAGTCACCTAGTGCAG”, the binding signal was 3940 fluorescence intensity (a.u.). With “TGCAGCCTACAGGCACGAACACGTCAGCAGTCCACGCCTCCGGAGTCACCTAGTGCAG”, the binding signal is 16900 fluorescence intensity (a.u.).

In the case of “ACCGCCGCGTGCTGCTGACGTGGCAGTCATCTCAGCCGTCCGGAGTCACCTAGTGCAG”, the binding signal was 34300 fluorescence intensity (a.u.). The same measure for “CAGCAGCAGCCACGCGACACGCTCCTCCACTCCTCTCCCGCGGAGTCACCTAGTGCAG”: 3770 fluorescence intensity (a.u.); for “TTGTGCTCGATGTGGCTTAGTCATGAAAGCCAATAGCCTTCGGAGTCACCTAGTGCAG”: 3640 fluorescence intensity (a.u.); for “GATTGCAGCTAAGAAAGTCGCAGCCAAGAAGTATATAACGCGGAGTCACCTAGTGCAG”: 24000 fluorescence intensity (a.u.). The same measure for “ACTGACGAGTCGACGGGAAACGGTGACGCGGCGGCCTGAGCGGAGTCACCTAGTGCAG”: 8740 fluorescence intensity (a.u.). Turning to “CGTCGCACTCACACAACTTGTGTGCAGCCCTGACACACAACGGAGTCACCTAGTGCAG”, the binding signal is 3970 fluorescence intensity (a.u.). Turning to “TAAGGTTGCCAACCTTAGCTGTTCGTTTTCCACGCGCACGCGGAGTCACCTAGTGCAG”, the binding signal was 3230 fluorescence intensity (a.u.). The same measure for “GATGCTGACGGGTTTGGCTGTCAAGATGCATGTATCTATCCGGAGTCACCTAGTGCAG”: 3600 fluorescence intensity (a.u.). “TGTTCGGCACCACATGTTCTCAACTCTTCTCCCTCGTGTTCGGAGTCACCTAGTGCAG”: the binding signal is 3160 fluorescence intensity (a.u.). The same measure for “TCGGCTGCGCGAGCGCATAGCCTCGGTTTTAATAGTCGGCCGGAGTCACCTAGTGCAG”: 17000 fluorescence intensity (a.u.); for “ATATTGATAACATATATTCACAACGATGATTCAGCATTGTCGGAGTCACCTAGTGCAG”: 3380 fluorescence intensity (a.u.).

On to “AGAGAGACTGACCGCCGGGACCCACAAGAGAGAACCACGTCGGAGTCACCTAGTGCAG”, for which the binding signal is 30700 fluorescence intensity (a.u.).

On to “TATATATATATATATATATATATATAATCTACTTGGCATGCGGAGTCACCTAGTGCAG”, for which the binding signal is 4020 fluorescence intensity (a.u.). The same measure for “TGGCTTGGCTTCCTAATTTGTTACTAATGAAATCGGTTAGCGGAGTCACCTAGTGCAG”: 3160 fluorescence intensity (a.u.); for “GCCATGAGTCATCAGTCATGACTCATGACACGATGGGCACCGGAGTCACCTAGTGCAG”: 12900 fluorescence intensity (a.u.). For “AATGATATTGAAGGGATAAAACTTCTTGTTTTACGTGTTGCGGAGTCACCTAGTGCAG”, the binding signal was 3260 fluorescence intensity (a.u.). The same measure for “CAGCTAGCTGCTCCAACTTCGCGTTGGTGCTTTAGTGACGCGGAGTCACCTAGTGCAG”: 3540 fluorescence intensity (a.u.); for “ATAGTATAAAAGTAATGTGATGTGGCTTTATGAGAGAAAACGGAGTCACCTAGTGCAG”: 3780 fluorescence intensity (a.u.); for “AGCCCGATGATAAAATTGTCGTCCGCTCGCGCCAGCTCATCGGAGTCACCTAGTGCAG”: 5860 fluorescence intensity (a.u.). On to “AGGTCTCCCACTCCTAGTCATCATCATCATCATCTCCCTACGGAGTCACCTAGTGCAG”, for which the binding signal is 7430 fluorescence intensity (a.u.). With “TTCATATCATATACGTACACGTGGAATAATTTGTAATTATCGGAGTCACCTAGTGCAG”, the binding signal is 9010 fluorescence intensity (a.u.).

Regarding “CCAGGCACCGACCTGTAGTTGCATCAGCAAACCATGGCTGCGGAGTCACCTAGTGCAG”, the binding signal was 4690 fluorescence intensity (a.u.).

For “AAGAATCTTTTAGTATTTGGTGCATGACAAGGCACTGATGCGGAGTCACCTAGTGCAG”, the binding signal is 4480 fluorescence intensity (a.u.). As for “CAATGAGGCTGATGGTGTGGAGGATTAGGTGTAGCCTTGGCGGAGTCACCTAGTGCAG”, the binding signal is 5200 fluorescence intensity (a.u.). The same measure for “CTGCGACGACGAGATCTTGTCTAGTAGACCGTGAATATATCGGAGTCACCTAGTGCAG”: 3330 fluorescence intensity (a.u.); for “CTATCATAATTCATAAATCATCGTATACGCGCTTGTCCAGCGGAGTCACCTAGTGCAG”: 3910 fluorescence intensity (a.u.).

Take “ACACTAACACGTGGCGCAATCCTCATCTCTCGCTCCGGATCGGAGTCACCTAGTGCAG”: the binding signal was 11700 fluorescence intensity (a.u.). The value for “GCCCTCGGCGGCTCGGCCGCTTGGCGCCACGTGTGCGGTGCGGAGTCACCTAGTGCAG” was 19000 fluorescence intensity (a.u.).

Take “ACCTCGTGGCCACTGTTGCATGGTCAACTTTCCCACCCATCGGAGTCACCTAGTGCAG”: the binding signal was 3420 fluorescence intensity (a.u.). The value for “GGTTCCTGGCATCCAATGGAAATTTGTAACCACCTCATCACGGAGTCACCTAGTGCAG” was 4630 fluorescence intensity (a.u.); that for “CGCGGGAATCAATCAATCGCCGTTCGCGTCGCGCCACGAGCGGAGTCACCTAGTGCAG” was 4060 fluorescence intensity (a.u.). The value for “CCCCATTTCGTGACGCGTCCTGGGATCACGAAGCAGATACCGGAGTCACCTAGTGCAG” was 4880 fluorescence intensity (a.u.). The same measure for “GCCGCCGCCGGAGTCCAGCCGCCGCACCTCCGCGCCCCGCCGGAGTCACCTAGTGCAG”: 28400 fluorescence intensity (a.u.); for “TGCCAGGCGTTGGTGCACGTGGCGTCAACAGCGCGACGGTCGGAGTCACCTAGTGCAG”: 7400 fluorescence intensity (a.u.); for “CATCCAGGCGTGTATAACAACACATCACCACCATTGCAAACGGAGTCACCTAGTGCAG”: 4140 fluorescence intensity (a.u.). For the sequence “CGCTGCCTTCGCCGTCGTGGCTTTGCGCCGCCTCCGCCAACGGAGTCACCTAGTGCAG”, the binding signal was 4150 fluorescence intensity (a.u.). The same measure for “TAATCTCTACAGTACAAGTTCTCAAGAAAATTACACTTTGCGGAGTCACCTAGTGCAG”: 3230 fluorescence intensity (a.u.). The same measure for “AAAGGGCAGGCACATCGCTTTCGGGCCCTGTCACGTACCCCGGAGTCACCTAGTGCAG”: 3920 fluorescence intensity (a.u.). The value for “TTAGTTTTATATAAAATGTGTCACATGATAATAGTAGTACCGGAGTCACCTAGTGCAG” was 3870 fluorescence intensity (a.u.); that for “CACTTTTATGACATTTTCAACCATACTATTTTCCTTAAAGCGGAGTCACCTAGTGCAG” was 39800 fluorescence intensity (a.u.); that for “CTGGTGGAATGATGCTGTTATACTGTCACCACTCATCGATCGGAGTCACCTAGTGCAG” was 5130 fluorescence intensity (a.u.). Take “GCGGCGGTGGGGATGGGGATAGGGCGGCGGCGGCGGATGGCGGAGTCACCTAGTGCAG”: the binding signal was 4780 fluorescence intensity (a.u.). The same measure for “GTATCAAGTGCCAATTTGTCAAATTTGAACGCAGCTAGAGCGGAGTCACCTAGTGCAG”: 23600 fluorescence intensity (a.u.); for “ATTGGTTAACCAGGTTGCAAAATCATAATGAGATTTGGATCGGAGTCACCTAGTGCAG”: 3200 fluorescence intensity (a.u.). In the case of “CCCCATGTAATGGTGTCATGGCCAGCACTATTAGCTGTAACGGAGTCACCTAGTGCAG”, the binding signal is 6240 fluorescence intensity (a.u.). For “ATCTGTCAGTGCCACATCACCACCACACAACCGCAAAGAACGGAGTCACCTAGTGCAG”, the binding signal is 4660 fluorescence intensity (a.u.). The value for “TAAAGAATAAGTAAATCATCATCGCTGATGTGTTGGCCCTCGGAGTCACCTAGTGCAG” was 4880 fluorescence intensity (a.u.); that for “AAAATGAGATAGGTCTTTCATATCAAAGCTGATGTGGCAACGGAGTCACCTAGTGCAG” was 17900 fluorescence intensity (a.u.); that for “TCAATTCCCACGGCCGTACTACTACGTGTCATCGCAATCTCGGAGTCACCTAGTGCAG” was 7520 fluorescence intensity (a.u.).

Take “TTCGGCGCAAATTTCTAATCATGATGTAATATAATTAGCTCGGAGTCACCTAGTGCAG”: the binding signal is 3270 fluorescence intensity (a.u.). The value for “CCCGTTTCACTGTGTGTGTGTGTGTGACGTTAACACGCTACGGAGTCACCTAGTGCAG” was 4400 fluorescence intensity (a.u.).
